Test system: human AGP
Assay: Fluorometric probe displacement assay

## CN1C(=O)CN=C(c2ccccc2)c2cc(Cl)ccc21 [Diazepam]
human, pH 7.4, Ki, displacement of ANS, probe ANS, 20°C, mean ± SE, n = 3 unless otherwise indicated, ND = not detected
  Ki at 2 min: 3.13 ± 0.06 µM
Probe BODIPY-PL2
  displacement of BODIPY-PL2 from AGP: able to compete with BODIPY-PL2
